The values below come from PubChem BioAssay AID1458 (National Center for Advancing Translational Sciences (NCATS), 2008).

The structures appear in SMILES notation. The campaign covered roughly 210,000 compounds. About 5,900 (2.8%) were called active. Not shown: some 5% with an inconclusive outcome. Calls come from the whole dose curve; as a rule, active = well fitted activation curve with a large enough effect; inconclusive = small, poorly fitted or top-dose-only effect; inactive = no such curve, though single readings can be large or run the other way. Only a part is listed here, and it is no random draw. Entries without a call were filed so in the source.
Potency is the fitted concentration of half-maximal effect.

This experiment is described as follows: qHTS Assay for Enhancers of SMN2 Splice Variant Expression. For activity change, positive = activation: % of control where 0% means no effect. Note: nearly all actives have a fitted effect of over 55% in size. The settings on record: HEK293 SMN2-luciferase splicing reporter, luminescence, 30-36 h; activity change, positive = activation: at 46.1 µM (top of the series) unless noted. The essentials: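 HEK293 cells carry an SMN2 […]–luciferase reporter in which exon 7 inclusion puts luciferase in frame. Cells were plated 10-12 h before compound addition, then incubated 30-36 h at 37C. ONE-Glo luminescence was read; sodium butyrate at 4.5 mM final served as control.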
For orientation: In qHTS, concentration-response curves come from the screen itself.
Consider `CC(/C=N/NC(=O)c1cccnc1)=C\c1ccccc1`, for which the activity change, positive = activation was found to be 47.7%.

Regarding `CCOc1ccccc1NC(=O)C1CCCN1C(=O)OCc1ccccc1` (centres undefined), the activity change, positive = activation stood at 21.1%.

On to `Cc1ccc(S(=O)(=O)NC(=O)O[C@@H]2C(=O)c3cc(Br)ccc3O[C@H]2c2ccc3c(c2)OCO3)cc1`, for which the activity change, positive = activation amounted to 43.2%.

Consider `CCCOC(=O)c1ccc(Oc2cn[nH]c2-c2ccc(OCC)cc2O)cc1`, for which the “activity change, positive = activation” value is inactive: -44.8%.

On to `Cc1ncsc1C(=O)NCc1ccc(N2CCCC2=O)cc1`, for which the “activity change, positive = activation” value was inactive: -43.9%.

Regarding `CC(=O)N1CCN(C(C)=O)C1c1ccccc1`, the activity change, positive = activation came to 46%.

Turning to `CCc1ccc(C(=O)Cn2ncc(Cl)c(Cl)c2=O)cc1`, the activity change, positive = activation is -67.7%.

Regarding `CN1CCc2nc3sc(C(=O)C45CC6CC(CC(C6)C4)C5)c(N)c3cc2C1`, the activity change, positive = activation was -72.3%.

Consider `COc1ccc(-c2[nH]c(-c3cccc(OC)c3)nc2SCC(=O)NC2CCCC2)cc1`, for which the activity change, positive = activation stood at 32.6%.

With `COc1cc(NS(=O)(=O)c2ccc(OC)c(C)c2C)c(OC)cc1Cl`, the activity change, positive = activation is -56.9%.

As for `CCc1ccc(S(=O)(=O)N(C(=O)Oc2ccccc2)c2ccc3oc(C)c(C(=O)OC)c3c2)cc1`, the “activity change, positive = activation” value is inactive: -32.6%.

For the molecule `Cc1cc(C(=O)Nc2ccc(S(=O)(=O)Nc3nccs3)cc2)c(C)o1`, the activity change, positive = activation was determined as 31.6%.

As to `O=C(Cn1cc([N+](=O)[O-])cn1)Nc1ccn(Cc2c(F)c(F)c(F)c(F)c2F)n1`, the “activity change, positive = activation” value was inactive: -32.7%.

`Cc1nc2ccccn2c1C(=O)N=Nc1c(O)n(CCC(C)C)c2ccccc12`: the “activity change, positive = activation” value is inactive: -74.7%.

With `Cc1cccc(S(=O)(=O)Nc2cccc3c2C(=O)c2ccccc2-3)c1`, the “activity change, positive = activation” value is inactive: -68.1%.

`COc1ccc2cc3cc(C(=O)NC(C)C)oc3nc2c1`: the activity change, positive = activation came to 39.7%.

In the case of `O=C(/C=C/c1ccc(O)cc1)c1ccc(NC2=C(N3CCCCC3)C(=O)c3ccccc3C2=O)cc1`, the “activity change, positive = activation” value is inactive: -98.8%.

As to `Nc1c(C(=O)N/N=C/c2cccnc2)cnn1-c1ccccc1`, the activity change, positive = activation was found to be 44.9%.

With `CCN1C(=O)c2c(C)nc3ccccc3c2C1=O`, the activity change, positive = activation stood at 56.1%.

For the molecule `CCOC(=O)Cc1csc(NC(=S)NC(=O)c2ccccc2Br)n1`, the activity change, positive = activation was -44%.

Turning to `N#CC1=C2SC=C(c3ccc(Br)cc3)N2CCCC1=O`, the Potency was active: 15.8 µM.

With `CC(=O)NCCNC(=O)c1ccc(-n2c(C)ccc2C)cc1`, the activity change, positive = activation is 40.9%.

As to `Cc1ccc2nsnc2c1S(=O)(=O)NCc1cccnc1`, the activity change, positive = activation was 30.7%.

Regarding `CCOc1ccc2nc(N3CCCC(C(=O)NCCCN4CCOCC4)C3)sc2c1` (centres undefined), the Potency is active: 12.6 µM.

For the molecule `COc1cccc(OCCNc2cc(N3CCOCC3)ccc2[N+](=O)[O-])c1`, the activity change, positive = activation came out at 44.8%.

For `CCN(CC)CC(O)Cn1c2ccccc2c2ccccc21` (centres undefined), the activity change, positive = activation stood at 36.7%.

As to `CC(=O)Nc1ccc(N=Nc2ccccc2)cc1`, the Potency is active: 10 µM.

For the molecule `Cc1ccc(-c2nnc(Cc3ccc([N+](=O)[O-])cc3)o2)cc1`, the activity change, positive = activation was -11.7%.

In the case of `O=C(Nc1nnc(SCc2ccc(Cl)cc2)s1)C1CC(=O)N(Cc2ccccc2)C1` (centres undefined), the activity change, positive = activation is -32.8%.
